For this assay, the target named is MYC, endogenous (human (endogenous in HEK293T)) (UniProt P01106). Description: co-IP; endogenous MYC immunoprecipitated with MYC antibody (sc-40) overnight at 4°C and protein A/G agarose from HEK293T lysate (0.25% Triton X-100 lysis buffer); with overexpressed VF-vector, VF-NSD3S or VF-NSD3SΔ15.

Amino acid sequences for entries named in this document (tags omitted). A change or cut given only in a name is not applied to a line headed by its entry. Chains listed by the source or under a name are the forms on record and can include a tag or linker.
UniProt P01106: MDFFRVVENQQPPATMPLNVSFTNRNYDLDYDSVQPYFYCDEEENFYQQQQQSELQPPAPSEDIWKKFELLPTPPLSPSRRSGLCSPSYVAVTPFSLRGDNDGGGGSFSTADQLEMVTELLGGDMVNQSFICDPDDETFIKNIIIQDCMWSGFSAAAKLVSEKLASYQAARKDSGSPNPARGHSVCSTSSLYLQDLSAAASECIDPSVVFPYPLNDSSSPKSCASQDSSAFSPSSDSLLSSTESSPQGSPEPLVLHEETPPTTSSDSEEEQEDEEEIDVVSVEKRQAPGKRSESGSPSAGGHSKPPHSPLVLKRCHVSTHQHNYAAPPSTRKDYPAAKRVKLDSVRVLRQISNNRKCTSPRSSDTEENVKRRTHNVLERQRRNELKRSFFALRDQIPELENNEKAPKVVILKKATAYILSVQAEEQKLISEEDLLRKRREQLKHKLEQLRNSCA
UniProt Q969H0: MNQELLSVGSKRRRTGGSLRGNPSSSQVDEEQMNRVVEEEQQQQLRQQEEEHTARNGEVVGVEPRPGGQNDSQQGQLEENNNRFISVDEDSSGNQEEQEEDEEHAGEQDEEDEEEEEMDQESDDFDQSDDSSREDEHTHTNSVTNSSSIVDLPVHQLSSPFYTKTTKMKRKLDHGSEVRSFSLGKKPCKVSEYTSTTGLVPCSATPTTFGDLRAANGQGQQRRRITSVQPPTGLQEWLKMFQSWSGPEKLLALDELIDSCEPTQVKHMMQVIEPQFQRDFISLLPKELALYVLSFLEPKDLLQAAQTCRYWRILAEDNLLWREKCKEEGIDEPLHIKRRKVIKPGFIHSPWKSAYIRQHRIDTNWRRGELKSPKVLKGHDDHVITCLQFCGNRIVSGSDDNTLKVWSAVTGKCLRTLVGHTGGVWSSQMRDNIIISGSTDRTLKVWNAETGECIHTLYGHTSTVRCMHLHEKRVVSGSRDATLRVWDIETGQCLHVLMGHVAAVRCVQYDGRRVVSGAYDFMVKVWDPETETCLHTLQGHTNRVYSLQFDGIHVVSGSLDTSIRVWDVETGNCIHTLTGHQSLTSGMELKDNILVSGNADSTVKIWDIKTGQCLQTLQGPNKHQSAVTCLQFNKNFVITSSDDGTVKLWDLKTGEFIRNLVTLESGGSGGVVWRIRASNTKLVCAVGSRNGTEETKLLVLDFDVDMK
Venus-Flag (VF)-tagged NSD3S (Q9BZ95-3, form named): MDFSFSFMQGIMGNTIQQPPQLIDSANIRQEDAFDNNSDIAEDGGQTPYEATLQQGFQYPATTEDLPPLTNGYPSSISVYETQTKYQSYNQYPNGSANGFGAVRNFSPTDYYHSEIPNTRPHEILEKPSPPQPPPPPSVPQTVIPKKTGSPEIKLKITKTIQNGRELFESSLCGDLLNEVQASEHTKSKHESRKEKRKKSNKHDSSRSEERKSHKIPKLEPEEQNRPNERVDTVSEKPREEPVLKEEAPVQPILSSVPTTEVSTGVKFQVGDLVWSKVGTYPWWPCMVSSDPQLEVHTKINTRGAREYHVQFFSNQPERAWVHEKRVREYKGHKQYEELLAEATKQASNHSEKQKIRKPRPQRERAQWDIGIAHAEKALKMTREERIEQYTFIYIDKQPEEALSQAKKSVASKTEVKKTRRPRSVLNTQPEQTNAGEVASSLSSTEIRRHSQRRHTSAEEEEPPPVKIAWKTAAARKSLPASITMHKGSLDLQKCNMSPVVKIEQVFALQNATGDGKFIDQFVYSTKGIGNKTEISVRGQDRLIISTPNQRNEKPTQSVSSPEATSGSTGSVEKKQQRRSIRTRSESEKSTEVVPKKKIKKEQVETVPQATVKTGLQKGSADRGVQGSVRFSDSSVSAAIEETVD
UniProt P49841: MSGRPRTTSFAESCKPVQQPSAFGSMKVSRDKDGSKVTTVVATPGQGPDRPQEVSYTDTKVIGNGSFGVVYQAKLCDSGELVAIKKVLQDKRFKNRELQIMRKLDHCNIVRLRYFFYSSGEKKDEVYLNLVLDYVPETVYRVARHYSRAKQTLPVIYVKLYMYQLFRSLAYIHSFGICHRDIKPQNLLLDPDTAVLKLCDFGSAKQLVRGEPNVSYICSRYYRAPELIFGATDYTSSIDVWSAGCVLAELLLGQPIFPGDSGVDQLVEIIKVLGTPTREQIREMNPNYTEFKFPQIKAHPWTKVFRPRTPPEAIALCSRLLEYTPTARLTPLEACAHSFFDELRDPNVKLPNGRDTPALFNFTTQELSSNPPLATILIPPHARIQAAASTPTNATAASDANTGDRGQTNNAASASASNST

No constants are given. Whether binding was seen depends on the method and setting. In cells and extracts the contact can be indirect. Some results given as binding are weak or reduced against the parent protein; the word gives no strength.

Consider three substances from PMC7333476.

In the case of “F-box and WD repeat domain containing 7 (FBXW7), endogenous (from UniProt Q969H0 1-707)”, the binding result is “binds”.
To “Venus-Flag (VF)-tagged NSD3S (from UniProt Q9BZ95-3 1-645)” belongs “binds”.
To “glycogen synthase kinase 3β (GSK3β), endogenous (from UniProt P49841 1-420) (enzyme)” belongs “binds”.
